Results from patent EP4335452A1 (L-Base Co., Ltd., priority 2021, dated 2024).
For some of these results: Some peptides are written in HELM: one residue between dots, names in brackets for other building blocks, links after the first $.

How the values were obtained:
[1] = peptide made by a vendor (solution-phase peptide synthesis; HATU / N,N-Diisopropylethylamine)
[2] = general procedure: solution-phase peptide synthesis; HATU / N,N-Diisopropylethylamine; settings: coupling step

Row | Substance | final purity (method not given) ([1]; late stage modification step) | step yield ([1]; late stage modification step) [%] | step yield ([1]; coupling step) [%] | further results
1 | 2-PhPh-AQTGTGKT | over 95% | 31 | – | –
2 | PEPTIDE1{[ac].A.Q.T.G.T.G.K.T}$$$$V2.0 | – | 37 | – | –
3 | 2-PhPh-AlaGlnThr(OBn)GlyThr(OBn)GlyLys(Cbz)Thr(OBn)OBn | – | – | 49 | –
4 | Ph-AlaGlnThr(OBn)GlyThr(OBn)GlyLys(Cbz)Thr(OBn)OBn | – | – | 58 | –
5 | Ac-AlaGlnThr(OBn)GlyThr(OBn)GlyLys(Cbz)Thr(OBn)OBn | – | – | 33 | –
6 | 2-Naphthyl-AlaGlnThr(OBn)GlyThr(OBn)GlyLys(Cbz)Thr(OBn)OBn | – | – | 64 | –
7 | PEPTIDE1{[3PhPh].A.Q.T.G.T.G.K.T}$$$$V2.0 | over 90% | 5 | – | –
8 | Naphthyl-AQTGTGKT | 85% | 33 | – | –
9 | GlnThr(OBn)GlyThr(OBn)GlyLys(Cbz)Thr(OBn)OBn | – | 96 | – | –
10 | PEPTIDE1{[4MeOPh].A.Q.T.G.T.G.K.T}$$$$V2.0 | 89% | 10 | – | –
11 | BocThr(OBn)GlyThr(OBn)GlyLys(Cbz)Thr(OBn)OBn | – | – | – | step yield [2]: >100%
12 | 3-PhPh-AlaGlnThr(OBn)GlyThr(OBn)GlyLys(Cbz)Thr(OBn)OBn | – | – | 38 | –
13 | BocThr(OBn)GlyLys(Cbz)Thr(OBn)OBn | – | 88 | – | step yield [2]: >100%
14 | Ph-AQTGTGKT | over 90% | 33 | – | –
15 | BocGlnThr(OBn)GlyThr(OBn)GlyLys(Cbz)Thr(OBn) OBn | – | – | – | step yield ([1]; coupling step, total yield): 89%
16 | 4-OMePh-AlaGlnThr(OBn)GlyThr(OBn)GlyLys(Cbz)Thr(OBn)OBn | – | – | 50 | –
